Experimental data as given in publication PMC6286126, “A novel pathway of LPS uptake through syndecan-1 leading to pyroptotic cell death” (eLife, 2018).
No constants are given. Whether binding was seen depends on the method and setting. For some assays here: Binding seen in cells or lysates may run through a third protein. Some binding calls cover weakened binding; strength is not graded here. Tags and fused reporters may be left off the sequences shown.

What was measured:
[1] = molecular target: T1, human SCGB3A2 with a C-terminal FLAG tag (human) (UniProt Q96PL1); assay: co-IP; COS-1 cells transfected with SCGB3A2-FLAG and candidate-Myc-His; media and lysate (1% CHAPS, 150 mM NaCl, 50 mM Tris-HCl pH 7.4) combined; IP with anti-FLAG gel at 4 °C overnight, washes with 500 mM NaCl; blot with anti-Myc; called pull-down in the text
T1 sequence: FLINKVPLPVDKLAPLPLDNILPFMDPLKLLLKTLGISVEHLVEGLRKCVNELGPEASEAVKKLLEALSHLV

[2] = molecular target: T1, human SCGB3A2 with a C-terminal FLAG tag (human); assay: co-IP; data not shown; pull-down (co-immunoprecipitation) of a candidate gene product with SCGB3A2
[3] = molecular target: T2, mouse SDC1 on the surface of LLC cells (mouse (endogenous in LLC)) (UniProt P18828); assay: flow cytometry on cells; GST tagged mouse SCGB3A2 (1 or 3 µg) incubated with LLC, LLC-sh-Control or LLC-sh-SDC1 cells at 4 °C for 30 min; rabbit anti-mouse SCGB3A2 antibody, then labelled anti-rabbit IgG; with or without heparin; only the binder purified
T2 sequence: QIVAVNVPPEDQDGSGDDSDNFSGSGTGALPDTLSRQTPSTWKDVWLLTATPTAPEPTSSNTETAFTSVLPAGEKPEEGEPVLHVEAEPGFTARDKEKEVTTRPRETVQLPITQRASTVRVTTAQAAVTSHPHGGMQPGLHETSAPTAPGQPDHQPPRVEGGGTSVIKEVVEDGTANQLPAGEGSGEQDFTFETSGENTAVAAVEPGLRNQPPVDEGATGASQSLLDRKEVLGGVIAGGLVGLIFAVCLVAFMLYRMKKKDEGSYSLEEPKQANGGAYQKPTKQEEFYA

[4] = molecular target: T3, mouse SDC1 over-expressed on ARH-77 cells (ARH-77-mSDC1) (mouse) (UniProt P18828); assay: flow cytometry on cells; GST tagged mouse SCGB3A2 (1 µg) incubated with ARH-77-control or ARH-77-mSDC1 cells at 4 °C for 30 min; PE-anti-rabbit IgG; with or without heparin; only the binder purified
T3 sequence: T2 sequence

[5] = molecular target: HaloTag-mouse SCGB3A2 fusion protein (mouse) (UniProt Q920H1); assay: SDS-PAGE with immunoblot; SDS-PAGE image of mSCGB3A2-HT using anti-HaloTag antibody

B1: syndecan-1 (SDC1) in pcDNA3.1/Myc-His (receptor, UniProt P18827 23-310)
chain: QIVATNLPPEDQDGSGDDSDNFSGSGAGALQDITLSQQTPSTWKDTQLLTAIPTSPEPTGLEATAASTSTLPAGEGPKEGEAVVLPEVEPGLTAREQEATPRPRETTQLPTTHLASTTTATTAQEPATSHPHRDMQPGHHETSTPAGPSQADLHTPHTEDGGPSATERAAEDGASSQLPAAEGSGEQDFTFETSGENTAVVAVEPDRRNQSPVDQGATGASQGLLDRKEVLGGVIAGGLVGLIFAVCLVGFMLYRMKKKDEGSYSLEEPKQANGGAYQKPTKQEEFYA
- binding [1]: binds

B2: podoplanin (PDPN, T1-alpha) in pcDNA3.1/Myc-His (protein, UniProt Q86YL7 23-162)
chain: ASTGQPEDDTETTGLEGGVAMPGAEDDVVTPGTSEDRYKSGLTTLVATSVNSVTGIRIEDLPTSESTVHAQEQSPSATASNVATSHSTEKVDGDTQTTVEKDGLSTVTLVGIIVGVLLAIGFIGAIIVVVMRKMSGRYSP
- binding [2]: binds

B3: GST tagged mouse SCGB3A2 (protein, UniProt Q920H1 22-91)
chain: LLINRLPVVDKLPVPLDDIIPSFDPLKMLLKTLGISVEHLVTGLKKCVDELGPEASEAVKKLLEALSHLV
- binding [3]: binds
- binding [4]: binds

B4: HaloTag-mouse SCGB3A2 fusion protein (protein, UniProt Q920H1 22-91)
chain: B3 chain
- binding [5]: binds
